Reference: PubChem BioAssay AID1259279 (Sanger Institute, 2017)

Test: 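Kinase-wide knock-down seeking synergy with BYL719, cetuximab or trametinib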 (primary screen)
Cell system: LS180 human colorectal cancer cells
Reagents: siRNA pool against human genes
Conditions: anchor drug BYL719 at 1 µM, cetuximab at 5 µg/ml or trametinib at 10 nM, or DMSO vehicle only
Detection: 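Viability as a fraction of non-targeting control and as a replicate-averaged robust z-score, with separate synergy scores for BYL719, cetuximab and trametinib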
Reading the numbers: viability z-score, no drug: higher = more viable cells after knock-down; viability, no drug: higher = more viable cells; synergy score with BYL719 and synergy score with cetuximab and synergy score with trametinib: higher = stronger synthetic lethal synergy with drug
Rule for the call: 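a knock-down is called active, meaning essential, if its viability z-score in vehicle alone falls below -3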
Calls: active = essential (knock-down alone cuts viability); inactive = no change without drug
In all, the deposit lists 794 reagents; shown is a part drawn at random. In the full data, 11 (1.4%) were called active. 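Calls reflect knock-down alone in the vehicle arm, not drug synergy.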 Viability is capped at 1. The record does not give: the amount of reagent, the time to read-out.

viability z-score, no drug | viability, no drug (fraction) | synergy score with BYL719 | synergy score with cetuximab | synergy score with trametinib | Call | gene
-0.739 | 0.826 | -0.0916 | -0.0798 | -0.0278 | inactive | BRWD1
0.126 | 0.92 | -0.15 | -0.233 | -0.0424 | inactive | AXL
0.86 | 1 | 0.0858 | 0.101 | -0.0184 | inactive | CDK6
-1.53 | 0.74 | -0.00505 | -0.11 | -0.00297 | inactive | PRKD3
0.403 | 0.95 | 0.0443 | 0.124 | -0.0196 | inactive | ZC3H11A
0.86 | 1 | -0.199 | -0.166 | -0.146 | inactive | PIP4K2A
-1.67 | 0.724 | -0.0211 | -0.123 | -0.042 | inactive | CDKN2D
0.778 | 0.991 | -0.185 | -0.147 | -0.238 | inactive | FER
0.86 | 1 | 0.00778 | 0.0803 | 0.0215 | inactive | FLT4
-0.665 | 0.834 | -0.0657 | -0.0522 | 0.0428 | inactive | NUP62
-1.17 | 0.778 | -0.0615 | -0.0539 | -0.105 | inactive | STRADA
-0.186 | 0.886 | -0.0972 | -0.171 | 0.116 | inactive | IKBKB
0.854 | 0.999 | 0.011 | -0.149 | -0.118 | inactive | IRAK4
0.86 | 1 | 0.0673 | -0.00348 | 0.0386 | inactive | MAK
0.713 | 0.984 | -0.0522 | -0.111 | -0.11 | inactive | DLG4
-0.867 | 0.812 | -0.178 | -0.255 | -0.108 | inactive | STK3
0.176 | 0.925 | -0.15 | -0.0869 | -0.0478 | inactive | PIP5KL1
0.86 | 1 | -0.0338 | -0.166 | 0.0165 | inactive | COMMD3
-0.111 | 0.894 | 0.0518 | 0.136 | 0.1 | inactive | GNAS
0.86 | 1 | -0.0551 | -0.0864 | -0.0882 | inactive | MASTL
0.549 | 0.966 | -0.0359 | -0.0194 | 0.025 | inactive | PDK2
0.311 | 0.94 | -0.117 | -0.0534 | 0.0669 | inactive | CDK10
0.501 | 0.961 | -0.231 | -0.116 | -0.236 | inactive | NEK7
-1.98 | 0.69 | 0.00864 | 0.095 | -0.0559 | inactive | PRAG1
0.0735 | 0.914 | -0.00113 | -0.0591 | 0.135 | inactive | STK25
0.244 | 0.933 | -0.149 | -0.0791 | -0.0143 | inactive | TSSK1B
0.86 | 1 | 0.114 | 0.0645 | 0.082 | inactive | AURKB
0.86 | 1 | -0.113 | -0.131 | -0.151 | inactive | MET
-2.13 | 0.674 | -0.114 | -0.0756 | -0.0818 | inactive | PIP5K1A
0.492 | 0.96 | -0.109 | -0.0335 | -0.191 | inactive | MAPK9
-0.267 | 0.877 | -0.184 | -0.147 | -0.0976 | inactive | DIS3
0.383 | 0.948 | -0.133 | -0.209 | -0.131 | inactive | CDKL5
0.86 | 1 | -0.00301 | -0.12 | 0.0717 | inactive | BMX
0.86 | 1 | -0.119 | -0.163 | -0.0821 | inactive | MAP2K5
0.373 | 0.947 | 0.0114 | -0.152 | -0.138 | inactive | GK
0.86 | 1 | -0.0164 | -0.0681 | 0.00146 | inactive | NRAS
0.86 | 1 | -0.0907 | -0.13 | -0.0529 | inactive | CSNK1D
-0.556 | 0.846 | -0.242 | -0.203 | -0.219 | inactive | TRPM7
-1.12 | 0.785 | -0.0564 | -0.125 | 0.00366 | inactive | CALM2
-1.77 | 0.713 | -0.0947 | -0.296 | -0.179 | inactive | PIP5K1C
0.00751 | 0.907 | -0.102 | 0.0126 | 0.0561 | inactive | CAMKK2
-1.06 | 0.79 | -0.0115 | 0.0421 | -0.0607 | inactive | ADCK2
0.273 | 0.936 | -0.0604 | -0.0359 | -0.103 | inactive | BRSK2
0.86 | 1 | -0.0858 | -0.166 | 0.00109 | inactive | STK4
0.86 | 1 | -0.0407 | 0.0357 | -0.0851 | inactive | RTN4
0.59 | 0.971 | -0.0441 | 0.045 | 0.108 | inactive | ACO1
0.671 | 0.979 | -0.153 | -0.126 | -0.0746 | inactive | TBCK
-0.637 | 0.837 | -0.0534 | -0.0448 | -0.0684 | inactive | AMER1
0.86 | 1 | -0.096 | -0.133 | -0.0127 | inactive | STK16
0.333 | 0.943 | -0.0771 | -0.0713 | 0.0551 | inactive | NTN4
0.86 | 1 | -0.175 | -0.0911 | -0.154 | inactive | CASP8
-0.79 | 0.82 | -0.223 | -0.11 | -0.0644 | inactive | CSNK1A1
-0.655 | 0.835 | -0.0542 | -0.0764 | -0.107 | inactive | MAPKAPK2
-0.424 | 0.86 | -0.196 | -0.143 | 0.0246 | inactive | WNK4
0.86 | 1 | -0.201 | -0.166 | -0.0516 | inactive | TLK2
-1.6 | 0.731 | -0.00562 | 0.06 | 0.0873 | inactive | MGA
-0.73 | 0.827 | -0.169 | -0.0238 | -0.06 | inactive | LTK
-1.32 | 0.762 | 0.0339 | 0.0499 | -0.00208 | inactive | PCK1
0.86 | 1 | 0.00401 | 0.013 | 0.0908 | inactive | FGFRL1
-3 | 0.579 | -0.108 | -0.172 | -0.0818 | active | DCLK2
-1.53 | 0.74 | -0.104 | -0.111 | -0.016 | inactive | MAP2K7
0.00242 | 0.907 | 0.0168 | -0.0508 | 0.0182 | inactive | PTGS1
-1.41 | 0.753 | -0.254 | -0.313 | -0.0849 | inactive | MATK

Records listed so far marked active:
viability z-score, no drug | viability, no drug (fraction) | synergy score with BYL719 | synergy score with cetuximab | synergy score with trametinib | Call | gene
-3 | 0.579 | -0.108 | -0.172 | -0.0818 | active | DCLK2
